Experimental data from PubChem BioAssay AID529 (NMMLSC, 2006).
Screen size: about 24,000 compounds; about 50 (0.2%) were called active. Inconclusive results, whose numbers are uncertain, are shown with a selection of clear calls.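 How the source made its calls: active means inhibition above 50%; inconclusive means compound itself fluorescent, judged against control cell fluorescence; inactive means the rest.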

The chains behind the UniProt entries cited, without tags or fusion partners.
UniProt P13612, whole entry, looked up: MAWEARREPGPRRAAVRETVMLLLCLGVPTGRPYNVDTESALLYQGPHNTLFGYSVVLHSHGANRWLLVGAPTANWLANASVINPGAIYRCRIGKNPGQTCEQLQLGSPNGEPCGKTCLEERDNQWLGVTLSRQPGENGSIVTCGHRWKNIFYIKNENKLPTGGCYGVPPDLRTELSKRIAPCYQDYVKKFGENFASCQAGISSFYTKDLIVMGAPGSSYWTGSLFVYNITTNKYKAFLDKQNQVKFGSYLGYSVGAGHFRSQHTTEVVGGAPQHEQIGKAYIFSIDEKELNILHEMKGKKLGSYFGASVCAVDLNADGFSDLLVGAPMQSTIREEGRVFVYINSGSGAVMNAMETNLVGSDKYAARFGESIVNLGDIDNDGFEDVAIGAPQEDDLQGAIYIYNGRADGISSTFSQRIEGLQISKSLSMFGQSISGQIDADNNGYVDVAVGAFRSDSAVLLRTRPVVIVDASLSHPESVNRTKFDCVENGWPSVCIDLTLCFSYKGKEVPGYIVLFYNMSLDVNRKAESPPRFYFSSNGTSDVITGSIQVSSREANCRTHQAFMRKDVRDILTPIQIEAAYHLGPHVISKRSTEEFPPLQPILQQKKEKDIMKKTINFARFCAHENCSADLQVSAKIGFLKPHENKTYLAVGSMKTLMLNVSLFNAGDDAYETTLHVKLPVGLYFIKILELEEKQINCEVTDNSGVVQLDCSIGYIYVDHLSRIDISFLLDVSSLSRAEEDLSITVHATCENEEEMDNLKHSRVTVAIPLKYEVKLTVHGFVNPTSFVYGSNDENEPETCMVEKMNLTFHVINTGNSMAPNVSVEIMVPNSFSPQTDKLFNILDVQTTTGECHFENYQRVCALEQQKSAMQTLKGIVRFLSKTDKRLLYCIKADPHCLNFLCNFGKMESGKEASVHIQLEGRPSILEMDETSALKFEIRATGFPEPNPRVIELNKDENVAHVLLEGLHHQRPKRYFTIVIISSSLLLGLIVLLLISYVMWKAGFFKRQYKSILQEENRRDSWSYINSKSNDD

Biological target: Integrin alpha-4 (Homo sapiens) (UniProt P13612)
Assay: blockers of LDV-FITC ligand binding on VLA-4 – Jurkat cells, Mn2+ activated, primary screen (AID 529);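 on inhibition: 0% = Mn2+ stimulated cells lacking compound and 100% = ligand binding without Mn2+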
Details: LDV-FITC binding with Mn2+, flow cytometry; stronger effect = higher value, screened at 10 µM (by protocol), 100% = Mn2+-driven binding gain fully reversed unless noted

Structure (SMILES) | inhibition
COc1ccc(CNc2nc3c(c(C(F)(F)F)n2)CCCCC3)cc1 | inactive: -5%
Cc1oc2cc(O)ccc2c(=O)c1Oc1ccccc1Br | inconclusive
Cc1oc(-c2ccccc2F)nc1CN1CCC(C(=O)NC2CCCCCCC2)CC1 | inconclusive
Cc1cccc(N2CCN(C(=O)c3cc4c(=O)n(C)c5ccccc5c4n3C)CC2)c1C | inconclusive
COc1ccc(CCN2C(=O)C3C4C=CC(C4)C3C2=O)cc1OC (centres undefined) | inactive: -31%
Cc1ccc2c(c1C)NC(C)CC2C (centres undefined) | inconclusive
CCOC(=O)N1CCN(C(=O)c2ccc3c(SCC(=O)O)c4c(nc3c2)CCC4)CC1 | inactive: -11%
COc1ccccc1N1C(=O)CCC1(C#N)c1ccccc1 (centres undefined) | inactive: -12%
Cc1ccc(NC(=O)CCn2c(=O)oc3ccccc32)c(C)c1 | inconclusive
Cc1ccsc1C1C2=C(CCCC2=O)Nc2ncnn21 (centres undefined) | inactive: -25.5%
Cc1cc(NC(=O)CSC2=Nc3ccccc3C3=NC(Cc4ccccc4)C(=O)N23)n[nH]1 (centres undefined) | inconclusive
COc1cc(OC)c(NC(=O)CCNC(=O)Cn2cnc3ccccc3c2=O)cc1Cl | inconclusive
CCOCCCNC(=O)c1cc(C)nn1-c1ccccc1 | inconclusive
CCOC(=O)c1[nH]c2c(c1C)C(=O)CC(c1ccc(N(C)C)cc1)C2 (centres undefined) | inactive: -3% [stronger effect = higher value, 100% = Mn2+-driven binding gain fully reversed, screened at 10 µM (by protocol)]
CCCN1CCN(C(=O)Cn2ncc3ccccc32)CC1 | inconclusive
Cc1c(NC(=O)CSc2nnc3sc4ccccc4n23)c(=O)n(-c2ccccc2)n1C | inactive: -25.5%
CCN1CCN(C(=O)c2ccc3c(=O)n(C4CCCC4)c(=S)[nH]c3c2)CC1 | inconclusive
COc1ccc(N2C(=O)C3CCCN3C2c2cccc(C)c2)cc1 (centres undefined) | inconclusive
Cc1ccc(C2C3=C(CCCC3=O)Nc3nc(SCC(=O)NCc4ccco4)[nH]c(=O)c32)cc1 (centres undefined) | inactive: -3%
COc1ccc(CCNC(=O)CSC2=Nc3ccccc3C3=NC(C(C)C)C(=O)N23)cc1OC (centres undefined) | inconclusive
COc1cccc(-c2cc3nc4c(c(N5CCC6(CC5)OCCO6)n3n2)CCCC4)c1 | inconclusive
O=C(CN1CCN(C(=O)c2cccc(F)c2)CC1)Nc1ccccc1F | inactive: 7% [stronger effect = higher value, 100% = Mn2+-driven binding gain fully reversed, screened at 10 µM (by protocol)]
COc1ccc(C)cc1Nc1cc(C)nc2ncnn12 | inconclusive

Structure (SMILES) | inhibition
Cc1[nH]nc2c1C1(C(=O)N(Cc3ccc(Cl)cc3)c3ccccc31)C(C#N)=C(N)O2 (centres undefined) | inconclusive
Cc1noc(C)c1S(=O)(=O)N1CCCC(C(=O)Nc2cccnc2)C1 (centres undefined) | inactive: -22%
CCOC(=O)c1ccc(S(=O)(=O)N2CCN(CCC#N)CC2)cc1 | inconclusive
Cc1cc(SCC(N)=O)nc(SCC(=O)c2ccccc2)n1 | inactive: -2%
COc1cccc(C2C3=C(CCCC3=O)Nc3nc(-c4cc(OC)c(OC)c(OC)c4)nn32)c1 (centres undefined) | inconclusive
Cn1cccc1Cc1nnc(SCC(=O)NCc2ccccc2Cl)n1-c1ccc(F)cc1 | inconclusive
Cc1nc2sc(C(c3ccccc3)N3CCOCC3)c(O)n2n1 (centres undefined) | inconclusive
CCOC(=O)c1cc2c(=O)n3ccccc3nc2n(Cc2ccccc2)c1=N | inconclusive
O=C(Cn1nc(Cc2cccnc2)c2ccccc2c1=O)NCC1CCCO1 (centres undefined) | inactive: -1% [stronger effect = higher value, 100% = Mn2+-driven binding gain fully reversed, screened at 10 µM (by protocol)]
Cc1noc(/C=C/NCc2cccnc2)c1S(=O)(=O)N(C)CC(=O)N1CCc2ccccc21 | inconclusive
CCc1cc(=O)oc2cc3oc(C)c(C)c3cc12 | inconclusive
COC(=O)c1[nH]c2ccc(F)cc2c1NS(=O)(=O)c1ccc(OC)cc1OC | inconclusive
COc1cc(NC(=O)c2ccc3c(=O)n(Cc4ccco4)c(=S)[nH]c3c2)cc(OC)c1OC | inconclusive
CCCOc1ccc(C(CC(=O)O)NC(=O)C23CC4CC(CC(C4)C2)C3)cc1 (centres undefined) | active: 113%
Cc1ccccc1Cc1c(C)nc2c(C(=O)NCc3ccco3)cnn2c1C | inconclusive
CCCn1c(C(O)c2ccc(OCC)cc2)nc2ccccc21 (centres undefined) | inconclusive
COC(=O)c1sc2ccccc2c1N | inconclusive
CCOC(=O)CSc1nnc(CNC(=O)c2ccc(OC)cc2)n1C1CCCCC1 | inactive: -5%
CC1CCC(NC(=O)CN2C(=O)C3CCCN3c3ncc(Cl)cc32)CC1 (centres undefined) | inconclusive
COc1ccc(C(=O)OCC(=O)c2ccc(C)c(S(=O)(=O)N3CCOCC3)c2)cc1OC | inconclusive
COc1ccc(S(=O)(=O)NC2CCCCC2)c(C)c1C | inactive: -15%
COc1ccc(N2CCN(c3nc4c(c(=O)[nH]c(=O)n4C)n3CCCc3ccccc3)CC2)cc1 | inactive: -20%
O=C(NCCN1C(=O)C2C3C=CC(C3)C2C1=O)Nc1ccc(Br)cc1 (centres undefined) | inconclusive

Structure (SMILES) | inhibition
O=c1oc2ccccc2c(O)c1C=NCc1ccccn1 | inconclusive
COc1ccc(Cl)cc1C(=O)Nn1c(C)nc2ccccc2c1=O | inconclusive
COCCCN1C(=O)C(O)=C(C(C)=O)C1c1ccccn1 (centres undefined) | inactive: 2%
CCC(Oc1ccccc1)C(=O)Nc1cc(C)on1 (centres undefined) | inconclusive
O=C(CCN1C(=O)c2ccncc2C1=O)Nc1ccc2c(c1)OCCO2 | inconclusive
Nc1nc(C2CC2)c(Sc2sc(N)nc2C2CC2)s1 | inactive: -1%
Cn1c(=O)n(CC(=O)OCc2ccccc2)c(=O)c2c1nc1n2CCCN1C1CCCCC1 | inconclusive
CC(=O)Nc1nc(C)nc(C)c1C(C)=O | inconclusive
CCOC(=O)CN1C(=O)COc2ccc(Cl)cc21 | inconclusive
COc1ccc(CN2C(=O)CN(C3CCCCCC3)C(=O)C2c2ccc(OC)c(OC)c2)cc1 (centres undefined) | inconclusive
Cc1nnc(SCc2cnc(-c3ccccc3)o2)[nH]c1=O | inactive: -18.5%
O=C(O)CCC(=O)c1c[nH]c2ccccc12 | inactive: -46%
CCCN(CCC)S(=O)(=O)c1cc(Br)cc2c1N(C(=O)CC)CC2 | inconclusive
COc1cc(C2C(C#N)=C(N)OC3=C2C(=O)CC(C)(C)C3)ccc1OC(=O)N1CCOCC1 (centres undefined) | inconclusive
CCOC(=O)c1c(C)n(OCc2ccccc2)c2ccc3c(no[n+]3[O-])c12 | inconclusive
CCc1ccc(-c2nc(CN3CCC(C(=O)NCc4ccccc4OC)CC3)c(C)o2)cc1 | inconclusive
COc1ccc(OC)c2[nH]c(=O)c(CCNC(=O)c3ccc(S(=O)(=O)N4CCCCC4)cc3)cc12 | inconclusive
Cc1nc2nc[nH]n2c(=O)c1NC(=O)c1c(-c2ccccc2Cl)noc1C | inactive: -16.5%
O=C(O)Cc1cc(I)c(Oc2ccc(O)c(I)c2)c(I)c1 | inactive: -17.5%
CCOc1ccc(NC(=O)c2ccc(F)c(S(=O)(=O)N3CCN(c4ccccn4)CC3)c2)cc1 | inconclusive
O=C(O)c1c2c(nc3ccc(S(=O)(=O)N4CCC(C(=O)NC5CCCC5)CC4)cc13)CCCCC2 | inconclusive
Cc1ccc(CNC(=O)CS(=O)Cc2nc(-c3ccccc3C)oc2C)cc1 (centres undefined) | inconclusive
CC1(C)CC(=O)N(CC(=O)NCc2ccc(F)cc2)c2ccccc2S1(=O)=O | inconclusive

Sorted by length of the SMILES (high to low): part of the list above
Structure (SMILES) | inhibition
Cn1c(=O)n(CC(=O)OCc2ccccc2)c(=O)c2c1nc1n2CCCN1C1CCCCC1 | inconclusive
COCCCN1C(=O)C(O)=C(C(C)=O)C1c1ccccn1 (centres undefined) | inactive: 2%
O=c1oc2ccccc2c(O)c1C=NCc1ccccn1 | inconclusive

(cont.)

Structure (SMILES) | inhibition
Cc1c(C(=O)Nc2ccccc2Cl)oc2ccc(S(=O)(=O)N3CCC4(CC3)OCCO4)cc12 | inactive: -8% [stronger effect = higher value, 100% = Mn2+-driven binding gain fully reversed, screened at 10 µM (by protocol)]
O=C(c1ccc(CNc2c(N3CCCC3)c(=O)c2=O)cc1)N1CCc2ccccc2C1 | inactive: -4%
Cc1ccc(Cc2c(C)nc3nc(SCC(=O)NCc4ccco4)nn3c2C)cc1 | inconclusive
Nc1cc(-c2cccc(F)c2)nn1S(=O)(=O)c1cccc2nsnc12 | inconclusive
CN(C)CCCN1C(=O)c2oc3ccccc3c(=O)c2C1c1cccs1 (centres undefined) | inconclusive
COc1ccc(N(CC(=O)N2CCCCC2)S(=O)(=O)c2ccccc2)c(OC)c1 | inactive: 0.5%
Cc1c(C(=O)N2CCN(c3ccc(F)cc3)CC2)sc2nc(-c3ccccc3)cn12 | inactive: 30%
COc1ccc(OCc2nnc3n2N=C(c2ccc(OC)cc2)CS3)cc1 | inconclusive
COc1ccc2nc3oc(C(=O)NCc4cccs4)cc3cc2c1 | inconclusive
COc1cc2c(C(=O)N3CCCc4ccccc43)cn(C)c(=O)c2cc1OC | inconclusive
O=C(CSc1nc2ccccc2c(=O)n1Cc1ccco1)N1CCCCCC1 | inconclusive
COc1cccc2sc(Nc3nnc(-c4ccccc4Cl)o3)nc12 | active: 73%
CCOc1cc(NC(=O)c2ccco2)c(OCC)cc1NC(=O)CCc1ccc(OC)cc1 | inactive: -19%
COCCNC(=O)c1c(N)n(CCC2=CCCCC2)c2nc3ccccc3nc12 | inconclusive
O=C(c1cnc2n(c1=O)CCS2)N1CCCc2ccccc21 | inconclusive
COc1ccccc1N1CCN(c2nc3ccccc3n3nnnc23)CC1 | inconclusive
Cc1ccc2oc(=O)c3cc(C(=O)N4CCN(c5ncccn5)CC4)sc3c2c1 | inactive: 15%
COCC(=O)n1nc(NCc2ccc(OC)cc2)nc1NCc1ccc(OC)cc1 | inconclusive
COc1ccc(NC(=O)CN(c2ccc(C)cc2)S(=O)(=O)c2c(C)nn(C)c2C)cc1OC | inconclusive
CCN(CC)S(=O)(=O)c1ccc2oc(C(=O)NC(C)C)c(C)c2c1 | inconclusive
